# For at least one compound, name, drawing or mass did not settle the structure.
# Tested on: food-seeking behavior
# Experiment: Food-seeking test (extinction session) after food self-administration and 20-day abstinence
# Type: in vivo, Sprague-Dawley rats
# Conditions: simvastatin 1 mg/kg i.p. daily for 20 days of abstinence, 3 h extinction test
compound,measurement,value
CCC(C)(C)C(=O)O[C@H]1C[C@@H](C)C=C2C=C[C@H](C)[C@H](CC[C@@H]3C[C@@H](O)CC(=O)O3)[C@H]21 [simvastatin],food-seeking behavior vs control rats,no significant difference

# Source: US20130109712A1, “Statins for the Prevention or Treatment of Drug Addictions” (Universite de Poitiers, priority 2010, published 2013)
